Assay results from paper PMC8500273.

Sequences of proteins named here, by UniProt entry; tags and fusion partners are left off.
UniProt P31146: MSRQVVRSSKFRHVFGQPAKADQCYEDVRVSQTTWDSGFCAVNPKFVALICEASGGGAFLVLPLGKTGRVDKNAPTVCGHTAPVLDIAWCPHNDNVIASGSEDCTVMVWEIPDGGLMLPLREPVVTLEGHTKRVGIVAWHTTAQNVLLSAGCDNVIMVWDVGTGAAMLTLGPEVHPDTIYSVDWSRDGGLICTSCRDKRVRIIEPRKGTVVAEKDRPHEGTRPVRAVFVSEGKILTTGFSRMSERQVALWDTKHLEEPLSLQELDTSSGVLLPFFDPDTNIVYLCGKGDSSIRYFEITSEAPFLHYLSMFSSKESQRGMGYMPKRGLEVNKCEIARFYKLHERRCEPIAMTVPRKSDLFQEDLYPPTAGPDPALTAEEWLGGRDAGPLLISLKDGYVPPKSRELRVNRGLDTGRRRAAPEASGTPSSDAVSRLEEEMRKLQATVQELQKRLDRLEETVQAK

Target: Coro1a, Flag-tagged, ectopically expressed (bait of the mass spectrometry) (human) (UniProt P31146)
Assay: affinity purification with mass spectrometry; Coro1a ectopically expressed in HEK293 cells, pulled down from cell lysates by anti-Flag beads, SDS-PAGE, gel pieces analysed on a Q Exactive

- binding: binds
B1: TRIM4 (endogenous, HEK293) (enzyme, UniProt Q9C037 1-500)
chain: MEAEDIQEELTCPICLDYFQDPVSIECGHNFCRGCLHRNWAPGGGPFPCPECRHPSAPAALRPNWALARLTEKTQRRRLGPVPPGLCGRHWEPLRLFCEDDQRPVCLVCRESQEHQTHAMAPIDEAFESYRTGNFDIHVDEWKRRLIRLLLYHFKQEEKLLKSQRNLVAKMKKVMHLQDVEVKNATQWKDKIKSQRMRISTEFSKLHNFLVEEEDLFLQRLNKEEEETKKKLNENTLKLNQTIASLKKLILEVGEKSQAPTLELLQNPKEVLTRSEIQDVNYSLEAVKVKTVCQIPLMKEMLKRFQVAVNLAEDTAHPKLVFSQEGRYVKNTASASSWPVFSSAWNYFAGWRNPQKTAFVERFQHLPCVLGKNVFTSGKHYWEVESRDSLEVAVGVCREDVMGITDRSKMSPDVGIWAIYWSAAGYWPLIGFPGTPTQQEPALHRVGVYLDRGTGNVSFYSAVDGVHLHTFSCSSVSRLRPFFWLSPLASLVIPPVTDRK

These are yes or no findings as the source states them, for the method shown. In cells and extracts the contact can be indirect. A yes stands for co-enrichment or nearness to the bait. Other partners may have been found.
